PubChem BioAssay AID224 (DTP/NCI, 2004)
The list is a part of this screen's results and no random one: it is rich in T/C values a quarter to a half above the control, in often repeated tests (any T/C) and in doses without a T/C. Other doses and runs of a compound stand elsewhere. T/C is the treated group as % of the vehicle group. Some doses have a count of surviving animals in place of a T/C: the source files T/C as zero there, which appears to mark a toxic dose or a test without result, not a measured value. Some doses without a T/C left all or most animals alive at the check, yet need not have been tolerated: survival well below the control is almost never listed, so the zero probably covers shortened survival too. Counts of survivors are from the toxicity check (mostly the fifth day) where no day follows; animals may have died later. Schedules are NCI's codes, taken here to give the interval after Q, in days (D) or hours (H), and the number of doses after X. Some schedule codes hold Z or #, which are not explained here. For survival time, this PubChem deposit counts one and a half times the control or more as active, and values a quarter to a half above the control carry no call in these data; other NCI protocols may use other cut-offs. Some doses were run more than once; their values stand side by side, smallest first.

System: P335 leukemia ip, BDF1 mice, survival T/C %
Assay: NCI In Vivo Anticancer Drug Screen. Data for tumor model P335 Leukemia (intraperitoneal) in B6D2F1 (BDF1) mice
Conditions: T/C endpoint: mean survival time, higher T/C = longer survival
Description: The antitumor activity of compounds was measured in mice bearing transplantable tumors. Survival or tumor size were measured and the results are expressed as the measurement made in the treated group (T) divided by the measurement made in the vehicle treated control group (C). The tumor model used in this assay is P335 Leukemia (intraperitoneal) in B6D2F1 (BDF1) mice

[1] = dose: 8.0 mg/kg/injection, schedule: Q01DX Z (ip), vehicle: carboxymethylcellulose (CMC)
[2] = dose: 250.0 mg/kg/injection, schedule: Q01DX Z (ip), vehicle: carboxymethylcellulose (CMC)
[3] = dose: 25.0 mg/kg/injection, schedule: Q01DX Z (ip), vehicle: carboxymethylcellulose (CMC)
[4] = dose: 50.0 mg/kg/injection, schedule: Q01DX Z (ip), vehicle: carboxymethylcellulose (CMC)
[5] = dose: 125.0 mg/kg/injection, schedule: Q01DX Z (sc), vehicle: steroid suspending solution
[6] = dose: 250.0 mg/kg/injection, schedule: Q01DX Z (sc), vehicle: steroid suspending solution
[7] = dose: 500.0 mg/kg/injection, schedule: Q01DX Z (sc), vehicle: steroid suspending solution
[8] = dose: 1.0 mg/kg/injection, schedule: Q01DX Z (ip), vehicle: carboxymethylcellulose (CMC)
[9] = dose: 2.0 mg/kg/injection, schedule: Q01DX Z (ip), vehicle: carboxymethylcellulose (CMC)
[10] = dose: 4.0 mg/kg/injection, schedule: Q01DX Z (ip), vehicle: carboxymethylcellulose (CMC)
[11] = dose: 5.0 mg/kg/injection, schedule: Q01DX Z (ip), vehicle: carboxymethylcellulose (CMC)
[12] = dose: 2.5 mg/kg/injection, schedule: Q01DX Z (ip), vehicle: carboxymethylcellulose (CMC)
[13] = dose: 0.12 mg/kg/injection, schedule: Q01DX Z (ip), vehicle: carboxymethylcellulose (CMC)

Oc1cc(CN(CCCl)CCCl)c(O)cc1CN(CCCl)CCCl
survivor count (dose: 3.75 mg/kg/injection, schedule: Q01DX Z (sc), vehicle: steroid suspending solution): 3 of 6 | survivor count (dose: 15.0 mg/kg/injection, schedule: Q01DX Z (sc), vehicle: steroid suspending solution): 6 of 6

Nc1nc(=S)c2ncn(C3OC(CO)C(O)C3O)c2[nH]1 (stereo not given)
survivor count (dose: 0.08 mg/kg/injection, schedule: Q01DX Z (ip), vehicle: carboxymethylcellulose (CMC)): 6 of 6

CN(C)c1ccc(/C=C\c2ccnc3ccccc23)cc1
survivor count (dose: 6.25 mg/kg/injection, schedule: Q01DX Z (ip), vehicle: water): 6 of 6 | survivor count (dose: 12.5 mg/kg/injection, schedule: Q01DX Z (ip), vehicle: water): 6 of 6 | survivor count (dose: 25.0 mg/kg/injection, schedule: Q01DX Z (ip), vehicle: water): 6 of 6 | survivor count (dose: 50.0 mg/kg/injection, schedule: Q01DX Z (ip), vehicle: water): 6 of 6

Clc1ncnc2nc[nH]c12
survivor count [1]: 6 of 6 | survivor count (dose: 16.0 mg/kg/injection, schedule: Q01DX Z (ip), vehicle: carboxymethylcellulose (CMC)): 6 of 6 | survivor count (dose: 31.0 mg/kg/injection, schedule: Q01DX Z (ip), vehicle: carboxymethylcellulose (CMC)): 6 of 6 | survivor count [2]: 0 of 6

O=P1(N(CCCl)CCCl)NCCCO1 (stereo not given)
T/C (dose: 12.5 mg/kg/injection, schedule: Q01DX Z (ip), vehicle: saline): 118, 125, 127, 138 % of control | T/C (dose: 25.0 mg/kg/injection, schedule: Q01DX Z (ip), vehicle: saline): 161, 245, 301, 307 % of control | T/C (dose: 50.0 mg/kg/injection, schedule: Q01DX Z (ip), vehicle: saline): 152, 171, 253, 305 % of control | T/C (dose: 100.0 mg/kg/injection, schedule: Q01DX Z (ip), vehicle: saline): 129 % of control | survivor count (dose: 200.0 mg/kg/injection, schedule: Q01DX Z (ip), vehicle: saline): 1 of 6

CCCNc1ncnc2[nH]ncc12
survivor count (dose: 1.25 mg/kg/injection, schedule: Q01DX Z (ip), vehicle: water): 6 of 6 | survivor count (dose: 2.5 mg/kg/injection, schedule: Q01DX Z (ip), vehicle: water): 6 of 6 | survivor count (dose: 5.0 mg/kg/injection, schedule: Q01DX Z (ip), vehicle: water): 6 of 6 | survivor count (dose: 10.0 mg/kg/injection, schedule: Q01DX Z (ip), vehicle: water): 6 of 6 | survivor count (dose: 20.0 mg/kg/injection, schedule: Q01DX Z (ip), vehicle: water): 6 of 6 | survivor count (dose: 40.0 mg/kg/injection, schedule: Q01DX Z (ip), vehicle: water): 5 of 6

CS(=O)(=O)OCCCCOS(C)(=O)=O
survivor count (dose: 0.02 mg/kg/injection, schedule: Q01DX Z (ip), vehicle: methylcellulose (MC)): 6 of 6 | survivor count (dose: 3.2 mg/kg/injection, schedule: Q01DX Z (ip), vehicle: methylcellulose (MC)): 6 of 6 | survivor count (dose: 12.8 mg/kg/injection, schedule: Q01DX Z (ip), vehicle: methylcellulose (MC)): 6 of 6 | survivor count (dose: 51.2 mg/kg/injection, schedule: Q01DX Z (ip), vehicle: methylcellulose (MC)): 6 of 6 | survivor count (dose: 102.4 mg/kg/injection, schedule: Q01DX Z (ip), vehicle: methylcellulose (MC)): 6 of 6 | survivor count (dose: 204.8 mg/kg/injection, schedule: Q01DX Z (ip), vehicle: methylcellulose (MC)): 4 of 6

CC(=O)Nc1ccc2nc3ccc(NC(C)=O)cc3[n+](-c3ccccc3)c2c1
survivor count [3]: 6 of 6 | survivor count [4]: 5 of 6 | survivor count (dose: 100.0 mg/kg/injection, schedule: Q01DX Z (ip), vehicle: carboxymethylcellulose (CMC)): 6 of 6

C[C@]12C=CC(=O)C=C1CC[C@@H]1[C@@H]2[C@@H](O)C[C@@]2(C)[C@H]1CC[C@]2(O)C(=O)CO
survivor count (dose: 62.5 mg/kg/injection, schedule: Q01DX Z (sc), vehicle: steroid suspending solution): 5 of 6 | survivor count [5]: 6 of 6 | survivor count [6]: 1 of 6 | survivor count [7]: 2 of 6

OCC1OC(n2cnc3c(Cl)ncnc32)C(O)C1O (stereo not given)
survivor count (dose: 3.9 mg/kg/injection, schedule: Q01DX Z (ip), vehicle: carboxymethylcellulose (CMC)): 6 of 6 | survivor count (dose: 31.25 mg/kg/injection, schedule: Q01DX Z (ip), vehicle: carboxymethylcellulose (CMC)): 6 of 6 | survivor count (dose: 62.5 mg/kg/injection, schedule: Q01DX Z (ip), vehicle: carboxymethylcellulose (CMC)): 6 of 6 | survivor count (dose: 125.0 mg/kg/injection, schedule: Q01DX Z (ip), vehicle: carboxymethylcellulose (CMC)): 6 of 6 | survivor count [2]: 6 of 6 | survivor count (dose: 500.0 mg/kg/injection, schedule: Q01DX Z (ip), vehicle: carboxymethylcellulose (CMC)): 6 of 6

O=C(O)CCCc1ccc(N(CCCl)CCCl)cc1
survivor count [3]: 2 of 6 | survivor count [4]: 0 of 6

NC(=O)N(CCCl)N=O
T/C (dose: 0.5 mg/kg/injection, schedule: Q01DX Z (ip), vehicle: carboxymethylcellulose (CMC)): 132 % of control | survivor count [8]: 6 of 6 | survivor count [9]: 6 of 6 | survivor count [10]: 6 of 6 | survivor count [1]: 6 of 6

CC1CCOS(=O)O1 (stereo not given)
survivor count [11]: 6 of 6 | survivor count (dose: 160.0 mg/kg/injection, schedule: Q01DX Z (ip), vehicle: carboxymethylcellulose (CMC)): 0 of 6 | survivor count (dose: 320.0 mg/kg/injection, schedule: Q01DX Z (ip), vehicle: carboxymethylcellulose (CMC)): 0 of 6

N#[N+]c1cnc([O-])[nH]c1=O
T/C [12]: 114, 133, 140 % of control | survivor count [12]: 2 of 6 | T/C [11]: 135 % of control | survivor count [11]: 5 of 6 | survivor count (dose: 20.0 mg/kg/injection, schedule: Q01DX Z (ip), vehicle: carboxymethylcellulose (CMC)): 2 of 6 | survivor count (dose: 40.0 mg/kg/injection, schedule: Q01DX Z (ip), vehicle: carboxymethylcellulose (CMC)): 0 of 6

NC(=O)c1cn(C2OC(CO)C(O)C2O)c2ncnc(N)c12 (stereo not given)
T/C [13]: 127 % of control | survivor count [8]: 4 of 6 | survivor count [9]: 3 of 6 | T/C (dose: 125.0 micrograms/kg/injection, schedule: Q01DX Z (ip), vehicle: carboxymethylcellulose (CMC)): 125 % of control

CCN(CC)C(=S)S
survivor count (dose: 2000.0 mg/kg/injection, schedule: Q01DX Z (ip), vehicle: water): 3 of 6

C[C@]12CCC(=O)C=C1CC[C@@H]1[C@@H]2C(=O)C[C@@]2(C)[C@H]1CC[C@]2(O)C(=O)CO
survivor count [5]: 6 of 6 | survivor count [6]: 6 of 6 | survivor count [7]: 5 of 6 | survivor count (dose: 1000.0 mg/kg/injection, schedule: Q01DX Z (sc), vehicle: steroid suspending solution): 3 of 6

N#Cc1cn(C2OC(CO)C(O)C2O)c2ncnc(N)c12 (stereo not given)
survivor count [13]: 4 of 6 | survivor count [8]: 6 of 6

C=CC(CN1CC1)OC(C)=O (stereo not given)
T/C (dose: 3.8 mg/kg/injection, schedule: Q01DX Z (ip), vehicle: carboxymethylcellulose (CMC)): 140 % of control

NC(N)=Nc1nc2ccccc2o1
survivor count [10]: 6 of 6 | survivor count [2]: 2 of 6

CSCS(=O)C[C@H](CO)NC(=O)/C=C/c1c(C)[nH]c(=O)[nH]c1=O (stereo not given in full)
survivor count (dose: 1.0 mg/kg/injection, schedule: Q01DX Z (ip), vehicle: saline): 6 of 6 | survivor count (dose: 2.0 mg/kg/injection, schedule: Q01DX Z (ip), vehicle: saline): 1 of 6 | survivor count (dose: 4.0 mg/kg/injection, schedule: Q01DX Z (ip), vehicle: saline): 0 of 6 | survivor count (dose: 8.0 mg/kg/injection, schedule: Q01DX Z (ip), vehicle: saline): 0 of 6
